Experiment [1] has as its target T1, CLCC1-FL (full-length), AAV-TBG-CLCC1-FL in Huh7 cells (mouse) (UniProt Q99LI2).
T1 sequence: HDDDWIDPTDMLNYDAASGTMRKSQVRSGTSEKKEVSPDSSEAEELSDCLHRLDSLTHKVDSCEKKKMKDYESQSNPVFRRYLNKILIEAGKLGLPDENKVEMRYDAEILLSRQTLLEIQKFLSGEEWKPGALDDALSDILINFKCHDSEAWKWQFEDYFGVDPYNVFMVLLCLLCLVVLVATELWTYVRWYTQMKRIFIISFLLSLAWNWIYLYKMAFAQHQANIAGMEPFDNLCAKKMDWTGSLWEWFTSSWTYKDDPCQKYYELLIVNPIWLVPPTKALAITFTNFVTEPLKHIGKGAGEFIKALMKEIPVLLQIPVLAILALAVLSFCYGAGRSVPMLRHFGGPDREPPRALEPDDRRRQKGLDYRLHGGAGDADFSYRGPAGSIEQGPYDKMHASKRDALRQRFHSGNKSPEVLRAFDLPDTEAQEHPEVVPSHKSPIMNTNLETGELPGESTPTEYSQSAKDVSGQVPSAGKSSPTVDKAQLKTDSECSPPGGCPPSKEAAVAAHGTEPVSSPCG
Description: co-IP.

Protein sequences, listed by entry. Tags and fused reporters are not part of them. Lines headed by an entry give the natural chain unless they say otherwise; changes in a name come on top. Chains listed by the source or under a name are the forms on record and can include a tag or linker. Residues count along the entry.
ectopically expressed TorsinA (mouse liver) (O14656, residues 21-332): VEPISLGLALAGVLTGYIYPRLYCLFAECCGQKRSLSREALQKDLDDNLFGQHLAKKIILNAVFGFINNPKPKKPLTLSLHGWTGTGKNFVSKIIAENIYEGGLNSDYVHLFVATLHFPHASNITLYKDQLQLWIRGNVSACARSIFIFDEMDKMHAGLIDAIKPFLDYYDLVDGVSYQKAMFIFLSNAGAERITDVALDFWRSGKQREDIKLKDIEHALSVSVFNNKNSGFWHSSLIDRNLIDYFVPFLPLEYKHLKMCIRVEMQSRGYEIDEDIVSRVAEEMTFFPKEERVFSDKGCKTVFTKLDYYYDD
TorsinA-G251D-StrepTagII-FLAG-StrepTagII (O14656, form named): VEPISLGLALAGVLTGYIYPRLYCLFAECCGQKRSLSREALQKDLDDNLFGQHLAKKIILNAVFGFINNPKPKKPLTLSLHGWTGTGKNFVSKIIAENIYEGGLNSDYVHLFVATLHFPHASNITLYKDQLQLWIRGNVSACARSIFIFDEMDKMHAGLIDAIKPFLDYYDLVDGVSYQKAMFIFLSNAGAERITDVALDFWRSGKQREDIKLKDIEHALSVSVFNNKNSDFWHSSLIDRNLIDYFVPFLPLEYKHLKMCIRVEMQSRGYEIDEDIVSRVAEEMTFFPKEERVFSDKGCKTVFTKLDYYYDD

Experiment [2] concerns the target TorsinA-G251D-StrepTagII-FLAG-StrepTagII (human) (UniProt O14656). Description: native gel or EMSA. For orientation: Mobility shift assays separate free from complexed probe on a gel.
The target of experiment [3] is T2, mCLCC1-StrepTagII-FLAG-StrepTagII (mouse) (UniProt Q99LI2).
T2 sequence: T1 sequence
Description: co-IP.

The target in experiment [4] is T3, endogenous CLCC1 (mouse liver) (mouse (endogenous in liver)) (UniProt Q99LI2).
T3 sequence: T1 sequence
The experiment is described as follows: co-IP.

The target of experiment [5] is ectopically expressed TorsinA (mouse liver) (UniProt O14656). Description: co-IP.
The target of experiment [6] is T3, endogenous CLCC1 (mouse liver) (mouse (endogenous in liver)). The experiment is described as follows: native gel or EMSA.
Experiment [7] deals with T2, mCLCC1-StrepTagII-FLAG-StrepTagII (mouse). Description: native gel or EMSA.

Results are given in words; binding and its absence hold for the method and conditions named. For part of these data: Binding seen in cells or lysates may run through a third protein. Some results given as binding are weak or reduced against the parent protein; the word gives no strength. For part of these data: Sequences can lack the tags named with a protein.

On to “TorsinA (AAV-TBG-TorsinA, in Huh7 cells) (from UniProt O14656 21-332)”, for which, in experiment [1], the binding entry is listed as “binds”.

For “TorsinA-G251D-StrepTagII-FLAG-StrepTagII (from UniProt O14656 21-332) (enzyme)”, the binding entry in experiment [2] is reported as “no binding”.

B1: TorsinA (endogenous, mouse liver) (protein, UniProt Q9ER39 21-333)
chain: VEPISLSLALAGVLTTYISYPRLYCLFAECCGQMRSLSREALQKDLDNKLFGQHLAKKVILNAVSGFLSNPKPKKPLTLSLHGWTGTGKNFASKIIAENIYEGGLNSDYVHLFVATLHFPHASNITQYKDQLQMWIRGNVSACARSIFIFDEMDKMHAGLIDAIKPFLDYYDVVDEVSYQKAIFIFLSNAGAERITDVALDFWKSGKQREEIKLRDMEPALAVSVFNNKNSGFWHSSLIDRNLIDYFVPFLPLEYKHLKMCIRVEMQSRGYEVDEDIISKVAEEMTFFPKEEKVFSDKGCKTVFTKLDYYLDD
For the molecule B1, the binding result in experiment [3] and in experiment [4] was “binds” throughout.

B2: endogenous CLCC1 (mouse liver) (protein, UniProt Q99LI2 19-539)
chain: T1 sequence
Turning to B2, the binding result in experiment [5] and in experiment [6] was “binds” each time.

B3: mCLCC1-StrepTagII-FLAG-StrepTagII (protein, UniProt Q99LI2 19-539)
chain: T1 sequence
As to B3, the binding entry in experiment [7] is “binds”.

B4: TorsinB (endogenous, mouse liver) (protein, UniProt Q9ER41 25-336)
chain: FEPVSVGIAIGAVSALTGYLSYTDFYCRFTECCHEERPLNTSALKLDLEEKLFGQHLATEVILKALTGFRNNKNSKKPLTLSLHGWAGTGKNFISQIVAENLYPKGLKSNFVHLFVSTLHFPHEQKIKVYQDQLQKWIRGNVSACGSSVFIFDEMDKLHPGIIDAIKPFLDYYEQVDGISYRRAIFIFLSNAGGDLITKTALDFWRAGRKREEIQLKDLEPVLSVGVFNNKHSGLWHSGLIDKNLIDYFIPFLPLEYKHVKMCVRAEMRARGAAVDEDVVTSVADEMTFFPKDEKIYSDKGCKTVQSRLDFH
Regarding B4, the binding entry in experiment [3] and in experiment [4] was “binds” each time.

For the origin of these results see paper doi:10.64898/2025.12.14.694184 (bioRxiv, 2025).
